The assay relates to P388 leukemia ip, CD2F1 mice, survival T/C. Description: NCI In Vivo Anticancer Drug Screen. Data for tumor model P388 Leukemia (intraperitoneal) in CD2F1 (CDF1) mice. The settings on record: T/C endpoint: median survival time, higher T/C = longer survival.
[1] abbreviates: dose: 60.0 mg/kg/injection, schedule: Q01DX005 (ip), vehicle: saline with Tween-80.
The mark [2] stands for this setting: dose: 120.0 mg/kg/injection, schedule: Q01DX005 (ip), vehicle: Klucel (hydroxypropylcellulose) (HPC).
[3] abbreviates: dose: 240.0 mg/kg/injection, schedule: Q01DX005 (ip), vehicle: Klucel (hydroxypropylcellulose) (HPC).
[4] abbreviates: dose: 100.0 mg/kg/injection, schedule: Q01DX009 (ip), vehicle: saline.
Where [5] appears, read: dose: 25.0 mg/kg/injection, schedule: Q01DX009 (ip), vehicle: saline with Tween-80.
The mark [6] stands for this setting: dose: 200.0 mg/kg/injection, schedule: Q01DX009 (ip), vehicle: Klucel (hydroxypropylcellulose) (HPC).
[7] abbreviates: dose: 200.0 mg/kg/injection, schedule: Q01DX001 (ip), vehicle: saline with Tween-80.
[8] abbreviates: dose: 400.0 mg/kg/injection, schedule: Q01DX001 (ip), vehicle: saline with Tween-80.
The mark [9] stands for this setting: dose: 50.0 mg/kg/injection, schedule: Q01DX009 (ip), vehicle: saline.
The mark [10] stands for this setting: dose: 200.0 mg/kg/injection, schedule: Q01DX005 (ip), vehicle: saline with Tween-80.

The list does not hold the whole screen: it is rich in T/C values a quarter to a half above the control, in often repeated tests (any T/C) and in doses without a T/C. Other doses and runs of a compound stand elsewhere. T/C gives the treated animals as a percentage of the vehicle group. Some doses have a count of surviving animals in place of a T/C: the source files T/C as zero there, which appears to mark a toxic dose or a test without result, not a measured value. Some survivor counts are full or nearly so, which does not show that the dose was tolerated: the source hardly ever lists a survival T/C far under the control, and the zero likely stands for such cases as well. Survivors were counted at the toxicity check, usually on the fifth day, unless a day is given; later deaths do not show. Schedule codes are those of the source, taken here to give the interval after Q, in days (D) or hours (H), and the number of doses after X. Some entries were tested several times; the results are listed from low to high. Where survival is the endpoint, this PubChem deposit counts one and a half times the control or more as active, and values a quarter to a half above the control carry no call in these data; other NCI protocols may use other cut-offs. Some T/C values are followed by the survivors on the day toxicity was checked, most often the fifth; without a count, all were alive then.

For the compound `COc1cc2c(c(OC)c1OC)-c1ccc(OC)c(=O)cc1C(NC(=O)CO)CC2` (stereo unspecified), the T/C (dose: 0.31 mg/kg/injection, schedule: Q01DX009 (ip), vehicle: Klucel (hydroxypropylcellulose) (HPC)) is 136 and 144 % of control. For the same compound, the survivor count is 5 of 6 and 6 of 6 (dose: 1.25 mg/kg/injection, schedule: Q01DX009 (ip), vehicle: Klucel (hydroxypropylcellulose) (HPC)); 3 of 6 (dose: 2.5 mg/kg/injection, schedule: Q01DX009 (ip), vehicle: Klucel (hydroxypropylcellulose) (HPC)); 0 of 6 (dose: 5.0 mg/kg/injection, schedule: Q01DX009 (ip), vehicle: Klucel (hydroxypropylcellulose) (HPC)); 0 of 6 (dose: 10.0 mg/kg/injection, schedule: Q01DX009 (ip), vehicle: Klucel (hydroxypropylcellulose) (HPC)); 0 of 6 (dose: 20.0 mg/kg/injection, schedule: Q01DX009 (ip), vehicle: Klucel (hydroxypropylcellulose) (HPC)); 0 of 6 (dose: 40.0 mg/kg/injection, schedule: Q01DX009 (ip), vehicle: Klucel (hydroxypropylcellulose) (HPC)).
On to `NC(Cc1cccc(F)c1)c1nn[nH]n1` (stereo unspecified), for which the survivor count (dose: 200.0 mg/kg/injection, schedule: Q04DX003 (ip), vehicle: saline with Tween-80) was 0 of 6.
For `CC[N+](C)(CC)CC(C)C1NS(=O)(=O)c2ccccc21` (stereo unspecified), the survivor count is on record as 6 of 6 (dose: 200.0 mg/kg/injection, schedule: Q04DX003 (ip), vehicle: saline) and 0 of 6 (dose: 400.0 mg/kg/injection, schedule: Q04DX003 (ip), vehicle: saline).
In the case of `O=C(NC1CCCCC1)OCc1c(COC(=O)NC2CCCCC2)c2cccn2c2c1cnn2-c1ccccc1`, the survivor count under setting [1] is 5 of 6 and 6 of 6.
Consider `O=[N+]([O-])c1ccc(C2=C[P+](c3ccccc3)(c3ccccc3)c3ccccc3O2)cc1`, for which the survivor count was 5 of 5 (dose: 12.5 mg/kg/injection, schedule: Q01DX005 (ip), vehicle: Klucel (hydroxypropylcellulose) (HPC)); 4 of 5 (dose: 25.0 mg/kg/injection, schedule: Q01DX005 (ip), vehicle: Klucel (hydroxypropylcellulose) (HPC)); 0 of 5 (dose: 50.0 mg/kg/injection, schedule: Q01DX005 (ip), vehicle: Klucel (hydroxypropylcellulose) (HPC)); 0 of 5 (dose: 100.0 mg/kg/injection, schedule: Q01DX005 (ip), vehicle: Klucel (hydroxypropylcellulose) (HPC)); 0 of 5 (dose: 200.0 mg/kg/injection, schedule: Q01DX005 (ip), vehicle: Klucel (hydroxypropylcellulose) (HPC)).
With `ClC(Cl)(Cl)CN1CCCCC1Cc1ccccc1` (stereo unspecified), the survivor count under setting [2] is reported as 0 of 6 and the survivor count under setting [3] was 0 of 6.
For the compound `C[CH2][Ge]1([CH2]C)[CH2]CC2(CCN(CCCN(C)C)C2)C[CH2]1`, the survivor count is 6 of 6 under setting [4] and 6 of 6 (dose: 100.0 mg/kg/injection, schedule: Q01DX009 (ip), vehicle: water).
For the compound `O=C(O)c1cc[c]([Hg][S]c2ncnc3nc[nH]c23)cc1`, the T/C (dose: 6.25 mg/kg/injection, schedule: Q01DX009 (ip), vehicle: saline with Tween-80) was 127 % of control and the T/C (dose: 12.5 mg/kg/injection, schedule: Q01DX009 (ip), vehicle: saline with Tween-80) is 126 % of control [5 of 6 alive]. In addition, the survivor count runs as follows: under setting [5], 1 of 6; (dose: 50.0 mg/kg/injection, schedule: Q01DX009 (ip), vehicle: Klucel (hydroxypropylcellulose) (HPC)) 1 of 6; (dose: 100.0 mg/kg/injection, schedule: Q01DX009 (ip), vehicle: Klucel (hydroxypropylcellulose) (HPC)) 0 of 6; under setting [6], 0 of 6.
As for `O=C(O)c1ccc(O)c(=O)cc1`, the survivor count is, setting by setting: (dose: 100.0 mg/kg/injection, schedule: Q01DX001 (ip), vehicle: saline with Tween-80) 1 of 6; under setting [7], 0 of 6; under setting [8], 0 of 6.
On to `C=C(C)c1nc(N(C)C)nc(N(C)C)n1`, for which the survivor count is 6 of 6 under setting [2] and 6 of 6 under setting [3].
In the case of `C1CN1P1(N2CC2)=NP(N2CC2)(N2CC2)=NP(N2CC2)(N2CC2)=N1`, the survivor count by setting is: (dose: 35.0 mg/kg/injection, schedule: Q01DX009 (ip), vehicle: saline) 6 of 6; under setting [9], 6 of 6.
Consider `CCCCCCCC/C=C/CC1CCCC(C)N1` (stereo unspecified) (tested in a mixture with another compound), for which the survivor count was 0 of 6 under setting [1]; 0 of 6 (dose: 120.0 mg/kg/injection, schedule: Q01DX005 (ip), vehicle: saline with Tween-80); 0 of 6 (dose: 240.0 mg/kg/injection, schedule: Q01DX005 (ip), vehicle: saline with Tween-80).
Regarding `C[n+]1c(/C=C/c2ccc(N3CCCC3)cc2)sc2ccccc21`, the survivor count runs as follows: (dose: 12.5 mg/kg/injection, schedule: Q01DX009 (ip), vehicle: saline) 1 of 6; under setting [9], 2 of 6; under setting [4], 1 of 6; (dose: 200.0 mg/kg/injection, schedule: Q01DX009 (ip), vehicle: saline) 0 of 6.
`C/C(=N/N)c1ccc(Br)cc1`: the survivor count under setting [5] is reported as 6 of 6.
As to `CCC(C)N(CCNc1cc(OC)cc2cccnc12)CCC(C)C` (stereo unspecified), the survivor count (dose: 200.0 mg/kg/injection, schedule: Q01DX005 (ip), vehicle: saline) is listed as 0 of 5.
For the compound `COC(=O)Nc1nc2cc(OC)c(OC)cc2c(=O)[nH]1`, the survivor count (dose: 100.0 mg/kg/injection, schedule: Q01DX005 (ip), vehicle: saline with Tween-80) is reported as 1 of 6 and the survivor count under setting [10] was 0 of 6.
`C1CNP2(=NP(N3CC3)(N3CC3)=NP(N3CC3)(N3CC3)=N2)N1`: where the note is “dose: 50.0 mg/kg/injection, schedule: Q01DX001 (ip), vehicle: saline with Tween-80”, the T/C was 135 % of control. The survivor count is 6 of 6 under setting [7] and 6 of 6 under setting [8].
Take `S=C=NP1(N=C=S)=NP(N=C=S)(N=C=S)=NP(N=C=S)(N=C=S)=NP(N=C=S)(N=C=S)=N1` (stereo unspecified): the survivor count under setting [10] is on record as 4 of 6.
As for `CN1CCc2cc(O)c(O)cc2C1Cc1ccc(O)c(O)c1` (stereo unspecified), under “dose: 200.0 mg/kg/injection, schedule: Q01DX009 (ip), vehicle: saline with Tween-80”, the survivor count is 2 of 6.
As to `CCOC(=O)c1cnc2cc3c(cc2c1Nc1ccc2c(c1)OCO2)OCO3`, the survivor count (dose: 240.0 mg/kg/injection, schedule: Q01DX005 (ip), vehicle: Klucel + Tween-80) is recorded as 3 of 6.
`CCc1nc(N)nc(N)c1-c1ccc(NC(C)c2ccccc2)c([N+](=O)[O-])c1` (stereo unspecified): where the note is “dose: 30.0 mg/kg/injection, schedule: Q01DX005 (ip), vehicle: Klucel (hydroxypropylcellulose) (HPC)”, the T/C is 131 and 132 % of control. In addition, the survivor count reads like this: (dose: 60.0 mg/kg/injection, schedule: Q01DX005 (ip), vehicle: Klucel (hydroxypropylcellulose) (HPC)) 0 of 6; under setting [2], 0 of 6; under setting [3], 0 of 6.
On to `CCOC(CN/C(=C/c1ccc2ccccc2[n+]1C)SC)OCC`, for which the survivor count under setting [1] was 0 of 6.
Take `CCCC[As](CCCC)SCC1OC(OC(C)=O)C(OC(C)=O)C(OC(C)=O)C1OC(C)=O` (stereo unspecified): the survivor count under setting [6] is recorded as 6 of 6.
As for `CCOC(=O)C1OC(C2(C)OC3(OC4(C=CC3O)OC(C(C)C(=O)C(C)C(O)C(C)CC(C)c3c(Cl)cc(C)c(O)c3C(=O)O)C(C)CC4C)C(C)C2OC)CC1O` (stereo unspecified), the survivor count runs as follows: (dose: 5.0 mg/kg/injection, schedule: Q01DX005 (ip), vehicle: Klucel (hydroxypropylcellulose) (HPC)) 5 of 6; (dose: 10.0 mg/kg/injection, schedule: Q01DX005 (ip), vehicle: Klucel (hydroxypropylcellulose) (HPC)) 0 of 6.
As for `Cc1ccc(/C=C/C(=O)C(C)CN(C)C)cc1` (stereo unspecified), the survivor count reads like this: (dose: 240.0 mg/kg/injection, schedule: Q01DX005 (ip), vehicle: saline) 1 of 6; (dose: 480.0 mg/kg/injection, schedule: Q01DX005 (ip), vehicle: saline) 0 of 6; (dose: 960.0 mg/kg/injection, schedule: Q01DX005 (ip), vehicle: saline) 0 of 6.
